Measured values from paper PMC7819943, “Rice protein-binding microarrays: a tool to detect cis-acting elements near promoter regions in rice”.
This is one part of the list.

Chains of the proteins cited; added tags and fusions are not shown.
UniProt Q0JBA9, entry or part of it: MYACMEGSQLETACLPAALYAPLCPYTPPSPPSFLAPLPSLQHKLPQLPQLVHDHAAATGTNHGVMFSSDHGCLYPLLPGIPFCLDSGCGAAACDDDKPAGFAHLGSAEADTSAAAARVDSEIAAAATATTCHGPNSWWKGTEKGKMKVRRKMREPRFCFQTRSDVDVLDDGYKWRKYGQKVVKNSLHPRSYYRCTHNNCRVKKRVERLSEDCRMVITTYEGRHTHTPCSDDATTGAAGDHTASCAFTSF

biological target: OsWRKY34 (Oryza sativa, UniProt Q0JBA9 1-250); test: protein-binding microarray (RPBM); PBS, 2% BSA, 51.3 ng/ul salmon testes DNA, 50 uM zinc acetate, 200 nM TF, 25 C, 1 h; high values mean tight binding; conditions: protein: recombinant; tags: N-terminal polyhistidine and DsRed monomer fusion (pET32a); label: CyDye5-dUTP incorporated in the synthesized complementary strand; 3' TTTTT single-stranded linker to array surface; dsDNA, one strand shown
Outline: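 For the binding signal, per-feature fluorescence intensity was read in arbitrary units on an Axon 4000B scanner. Before scanning, a 2% BSA-blocked custom Agilent array made double-stranded with Cy5-dUTP was washed after 1 h at 25 °C with 200 nM protein and 50 µM zinc acetate. The proteins were Ni–NTA-purified transcription factors with N-terminal polyhistidine and DsRed fusions, expressed in E. coli BL21-CodonPlus.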

| Sequence | binding signal |
| --- | --- |
| ATGCAACTAACCCTTATCAGCATCATGTGCCTTTATCTCTCGGAGTCACCTAGTGCAG | 8540 fluorescence intensity (a.u.) |
| GCTTCGATTCAGTTTCAACCCAAACAGAAACCCCAAAAACCGGAGTCACCTAGTGCAG | 8060 fluorescence intensity (a.u.) |
| GTTGTCCTGTGCTTTTGTAATTCTTTGTTGTACATTTTTACGGAGTCACCTAGTGCAG | 16300 fluorescence intensity (a.u.) |
| CACTTCATTCATTCTTGTCCACCCGTTGCCCAGCCCAGACCGGAGTCACCTAGTGCAG | 8580 fluorescence intensity (a.u.) |
| TGGCTTTGACTCTTAGGGTTTGTACGCTACCTAGCTAGCTCGGAGTCACCTAGTGCAG | 9660 fluorescence intensity (a.u.) |
| TTTTCTCAATTATTTCAGGGTCACATAGTACCTCTCCATTCGGAGTCACCTAGTGCAG | 8580 fluorescence intensity (a.u.) |
| CTATCGCCCATCATTTCCGTCGCCGACCTCAGCTGCTGCGCGGAGTCACCTAGTGCAG | 9020 fluorescence intensity (a.u.) |
| TTCTGCTAAAATTTGTACTGTTTGTTCCTTTGAGAAATCCCGGAGTCACCTAGTGCAG | 11100 fluorescence intensity (a.u.) |
| CACTTTCTCCGTTTATTCCTCTCCCTCAACGTTGCCGGCCCGGAGTCACCTAGTGCAG | 11500 fluorescence intensity (a.u.) |
| GTTTTGTTCCTTTTTTTTCCACTCCACATGTATCAGTTATCGGAGTCACCTAGTGCAG | 15900 fluorescence intensity (a.u.) |
| GGGGCGGATCTACAGTGTTAGCATCGGTGTCAGATGACACCGGAGTCACCTAGTGCAG | 9290 fluorescence intensity (a.u.) |
| CGCCACTTCAGACTCCATCTCAGGCATTGTTCAAGCTCATCGGAGTCACCTAGTGCAG | 9700 fluorescence intensity (a.u.) |
| CGCTTTTGATGCATAATTCGACTACTTTATGTCCTATCTTCGGAGTCACCTAGTGCAG | 9910 fluorescence intensity (a.u.) |
| GATCATACTATTCCCCAATTTCTTTCAGTGGGACACGAACCGGAGTCACCTAGTGCAG | 10300 fluorescence intensity (a.u.) |
| CCTACACCCACCCACCCAACCCAAGCCGTCGTCGCGTTCACGGAGTCACCTAGTGCAG | 11200 fluorescence intensity (a.u.) |
| CCCACCTGCATTCAAGGCCTTGTTCTCAACGATTGAAATACGGAGTCACCTAGTGCAG | 11900 fluorescence intensity (a.u.) |
| ATGTGAGTGTTTTTTTAGTTGGAAATGTGGGTGCATTTTGCGGAGTCACCTAGTGCAG | 8560 fluorescence intensity (a.u.) |
| GCCACCTCAAAGCTCTCCGTTCAAACCGTCCCGCGCCGCCCGGAGTCACCTAGTGCAG | 8790 fluorescence intensity (a.u.) |
| TGTGTTTGCTCGTATTTCTATTATTTTCTTTAGTCCGGCTCGGAGTCACCTAGTGCAG | 11000 fluorescence intensity (a.u.) |
| ACCCCGCCGTCGAGGACATCCTCATCACCGCCGCCCACGTCGGAGTCACCTAGTGCAG | 8650 fluorescence intensity (a.u.) |
| CTCCTCGATCCGTTGCCTTTTGTGCTTTTTTTGGCCTCTTCGGAGTCACCTAGTGCAG | 13700 fluorescence intensity (a.u.) |

| Sequence | binding signal |
| --- | --- |
| CAAACACAAACACCGGCTCACACGCTCGCCTCCTCCCTCTCGGAGTCACCTAGTGCAG | 9140 fluorescence intensity (a.u.) |
| GTGTTGACCAAACGGCTGATTTTGAACAATTTGGCTGAAGCGGAGTCACCTAGTGCAG | 9080 fluorescence intensity (a.u.) |
| TTCTCCTCAAAATATTGCGAACCTTTTCAGCCATCGGATTCGGAGTCACCTAGTGCAG | 8620 fluorescence intensity (a.u.) |
| GGGGATAGGTATTTGGCGGGGATTCAAAGGATGCGATTGACGGAGTCACCTAGTGCAG | 12100 fluorescence intensity (a.u.) |
| ATGCACGCAAAGATTAATCTGCTCATGCTTTTGCTTTAGTCGGAGTCACCTAGTGCAG | 8780 fluorescence intensity (a.u.) |
| AGGTACCTTTCTTTATACATGTACGAAACATACATATACCCGGAGTCACCTAGTGCAG | 8440 fluorescence intensity (a.u.) |
| CCATTTGAGTTCATTTTTTCTATGGTTGGTTCTTATGTGTCGGAGTCACCTAGTGCAG | 8920 fluorescence intensity (a.u.) |
| CCTGGTGCCAGCTGCTGCTCCGCTACTTCCCACTGCGCGACGGAGTCACCTAGTGCAG | 11000 fluorescence intensity (a.u.) |
| CCGCCCCAAGAGCTACCCCGCCTCGTCTCATCTCATCTCACGGAGTCACCTAGTGCAG | 8710 fluorescence intensity (a.u.) |
| CATGCTACGTGGACGATGACATGGATTTTTTTATTTTTTCCGGAGTCACCTAGTGCAG | 9280 fluorescence intensity (a.u.) |
| AACGGTCAAATATATTTAAAAAGTCAACGCGCTAAATATTCGGAGTCACCTAGTGCAG | 10500 fluorescence intensity (a.u.) |
| TAGCTATTGCTCGCTGGCCTACCATTAATTAGTATACTGTCGGAGTCACCTAGTGCAG | 8800 fluorescence intensity (a.u.) |
| TCTTTCTTGCCCTTTTATCTCGAGCCACTTGGTGCAGATTCGGAGTCACCTAGTGCAG | 8370 fluorescence intensity (a.u.) |
| CCATCGATATACATATGTAACTCACCTATTCTTAATCTTTCGGAGTCACCTAGTGCAG | 8530 fluorescence intensity (a.u.) |
| ATCCACTTGACCACCTTGCATCGATTCCCAGTTCGGATTGCGGAGTCACCTAGTGCAG | 8830 fluorescence intensity (a.u.) |
| CCCCACCCCGACCTCTCCCCGGTATTCTCGTCGCCGTCCGCGGAGTCACCTAGTGCAG | 8550 fluorescence intensity (a.u.) |
| TATTATTACTGGGCAGCATTTCATTTCGAAGCATTTCCAACGGAGTCACCTAGTGCAG | 8420 fluorescence intensity (a.u.) |
| ATCATAGTGACATTTTTTATATATTTTTAGTGGTATAAGTCGGAGTCACCTAGTGCAG | 9020 fluorescence intensity (a.u.) |
| CATTCCATGCCTTCGGTAGCCACGAGTGCCTCTCCGTCATCGGAGTCACCTAGTGCAG | 13100 fluorescence intensity (a.u.) |
| GTATGTACTGGGTCTAATAAAGTCAATCTTAACCTCTTGTCGGAGTCACCTAGTGCAG | 9690 fluorescence intensity (a.u.) |
| TACTGAGCTCCGGCCTCTTATTTTTATTCCATTTTATTTTCGGAGTCACCTAGTGCAG | 10500 fluorescence intensity (a.u.) |

An excerpt of these results, as tab-separated lines:
Sequence	binding signal
TTCTCCTCAAAATATTGCGAACCTTTTCAGCCATCGGATTCGGAGTCACCTAGTGCAG	8620 fluorescence intensity (a.u.)
TAGCTATTGCTCGCTGGCCTACCATTAATTAGTATACTGTCGGAGTCACCTAGTGCAG	8800 fluorescence intensity (a.u.)
ATCATAGTGACATTTTTTATATATTTTTAGTGGTATAAGTCGGAGTCACCTAGTGCAG	9020 fluorescence intensity (a.u.)
